From the supplement of paper PMC10849652
The list shows a part of the results.

Chains of the proteins cited; added tags and fusions are not shown. Lines headed by an entry give the natural chain unless they say otherwise; changes in a name come on top.
UniProt Q86V88: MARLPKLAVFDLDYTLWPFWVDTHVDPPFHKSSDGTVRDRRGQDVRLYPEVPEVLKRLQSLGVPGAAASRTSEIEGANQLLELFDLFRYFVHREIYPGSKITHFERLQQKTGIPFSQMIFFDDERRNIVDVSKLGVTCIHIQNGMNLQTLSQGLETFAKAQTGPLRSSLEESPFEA
UniProt P50579: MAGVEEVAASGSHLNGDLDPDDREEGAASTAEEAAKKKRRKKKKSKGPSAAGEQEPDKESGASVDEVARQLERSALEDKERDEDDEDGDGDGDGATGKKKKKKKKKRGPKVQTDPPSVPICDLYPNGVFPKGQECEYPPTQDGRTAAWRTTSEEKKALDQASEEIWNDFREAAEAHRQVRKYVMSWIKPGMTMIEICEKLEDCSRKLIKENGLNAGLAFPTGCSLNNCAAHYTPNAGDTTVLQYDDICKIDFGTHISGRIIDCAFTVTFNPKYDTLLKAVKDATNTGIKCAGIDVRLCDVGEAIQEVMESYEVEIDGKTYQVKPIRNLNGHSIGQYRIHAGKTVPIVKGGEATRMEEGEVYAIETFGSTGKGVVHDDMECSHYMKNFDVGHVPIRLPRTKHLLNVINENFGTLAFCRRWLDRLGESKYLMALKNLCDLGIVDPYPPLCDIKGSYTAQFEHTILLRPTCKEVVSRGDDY
UniProt Q9BQP7: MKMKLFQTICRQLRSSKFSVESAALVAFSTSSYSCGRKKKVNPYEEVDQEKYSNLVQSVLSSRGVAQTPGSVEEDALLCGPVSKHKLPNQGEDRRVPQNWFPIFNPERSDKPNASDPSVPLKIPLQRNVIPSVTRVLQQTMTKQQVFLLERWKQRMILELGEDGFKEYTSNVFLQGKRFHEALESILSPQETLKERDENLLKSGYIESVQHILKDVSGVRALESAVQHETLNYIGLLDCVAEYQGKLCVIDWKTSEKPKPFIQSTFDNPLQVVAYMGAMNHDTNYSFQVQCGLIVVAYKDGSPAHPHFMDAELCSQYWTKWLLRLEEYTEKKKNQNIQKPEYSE
UniProt Q96N66: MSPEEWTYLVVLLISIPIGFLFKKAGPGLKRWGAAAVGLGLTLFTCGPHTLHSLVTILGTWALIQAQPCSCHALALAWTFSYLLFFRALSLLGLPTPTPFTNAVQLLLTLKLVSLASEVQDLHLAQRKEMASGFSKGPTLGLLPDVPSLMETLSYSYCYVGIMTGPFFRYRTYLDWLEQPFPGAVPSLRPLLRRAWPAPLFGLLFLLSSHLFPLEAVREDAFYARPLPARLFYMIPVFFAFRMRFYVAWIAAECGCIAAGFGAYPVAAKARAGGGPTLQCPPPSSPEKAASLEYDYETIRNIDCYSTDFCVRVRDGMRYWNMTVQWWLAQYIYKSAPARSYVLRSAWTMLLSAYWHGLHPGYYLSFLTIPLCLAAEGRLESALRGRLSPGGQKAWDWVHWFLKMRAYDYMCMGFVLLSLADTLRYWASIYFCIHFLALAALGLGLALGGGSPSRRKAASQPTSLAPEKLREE
UniProt Q9Y3C7: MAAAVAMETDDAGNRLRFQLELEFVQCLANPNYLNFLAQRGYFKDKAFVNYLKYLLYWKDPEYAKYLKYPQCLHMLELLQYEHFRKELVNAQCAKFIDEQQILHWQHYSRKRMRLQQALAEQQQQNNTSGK
UniProt O60244: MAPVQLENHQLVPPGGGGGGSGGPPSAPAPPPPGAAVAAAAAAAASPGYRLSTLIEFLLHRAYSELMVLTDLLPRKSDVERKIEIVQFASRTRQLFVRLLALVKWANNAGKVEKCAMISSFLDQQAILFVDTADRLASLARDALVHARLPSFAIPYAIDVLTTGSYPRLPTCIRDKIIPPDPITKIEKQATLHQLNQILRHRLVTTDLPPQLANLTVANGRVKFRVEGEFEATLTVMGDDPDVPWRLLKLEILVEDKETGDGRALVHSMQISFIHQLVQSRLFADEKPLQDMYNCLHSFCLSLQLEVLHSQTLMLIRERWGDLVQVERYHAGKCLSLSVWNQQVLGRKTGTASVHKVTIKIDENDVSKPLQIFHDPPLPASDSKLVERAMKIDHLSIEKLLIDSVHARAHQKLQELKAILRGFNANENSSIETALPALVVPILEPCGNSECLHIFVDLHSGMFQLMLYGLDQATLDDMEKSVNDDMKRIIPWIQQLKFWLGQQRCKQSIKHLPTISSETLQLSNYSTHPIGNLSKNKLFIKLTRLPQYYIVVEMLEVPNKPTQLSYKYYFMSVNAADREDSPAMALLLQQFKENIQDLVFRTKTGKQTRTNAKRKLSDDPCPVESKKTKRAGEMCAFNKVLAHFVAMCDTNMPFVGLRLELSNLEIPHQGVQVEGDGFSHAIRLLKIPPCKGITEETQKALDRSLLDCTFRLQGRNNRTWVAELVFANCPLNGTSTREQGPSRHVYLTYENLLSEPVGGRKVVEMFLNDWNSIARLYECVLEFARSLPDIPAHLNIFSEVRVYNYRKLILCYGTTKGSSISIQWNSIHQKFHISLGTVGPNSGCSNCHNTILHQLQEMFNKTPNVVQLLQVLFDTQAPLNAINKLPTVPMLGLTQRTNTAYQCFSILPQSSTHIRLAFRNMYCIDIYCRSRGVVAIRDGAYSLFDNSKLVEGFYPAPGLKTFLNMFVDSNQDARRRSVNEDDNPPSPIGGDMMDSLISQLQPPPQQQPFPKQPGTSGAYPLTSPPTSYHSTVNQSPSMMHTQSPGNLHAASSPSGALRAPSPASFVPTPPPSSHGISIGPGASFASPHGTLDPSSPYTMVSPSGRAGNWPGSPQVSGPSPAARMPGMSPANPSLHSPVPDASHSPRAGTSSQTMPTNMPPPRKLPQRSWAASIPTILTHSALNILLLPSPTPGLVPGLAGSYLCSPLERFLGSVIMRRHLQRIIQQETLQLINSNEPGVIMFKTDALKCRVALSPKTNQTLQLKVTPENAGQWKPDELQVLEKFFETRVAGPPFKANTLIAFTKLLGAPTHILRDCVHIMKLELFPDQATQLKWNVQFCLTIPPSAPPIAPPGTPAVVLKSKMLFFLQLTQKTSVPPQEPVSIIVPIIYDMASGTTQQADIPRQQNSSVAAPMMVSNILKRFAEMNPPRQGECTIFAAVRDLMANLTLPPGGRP
UniProt Q06413, whole entry, looked up: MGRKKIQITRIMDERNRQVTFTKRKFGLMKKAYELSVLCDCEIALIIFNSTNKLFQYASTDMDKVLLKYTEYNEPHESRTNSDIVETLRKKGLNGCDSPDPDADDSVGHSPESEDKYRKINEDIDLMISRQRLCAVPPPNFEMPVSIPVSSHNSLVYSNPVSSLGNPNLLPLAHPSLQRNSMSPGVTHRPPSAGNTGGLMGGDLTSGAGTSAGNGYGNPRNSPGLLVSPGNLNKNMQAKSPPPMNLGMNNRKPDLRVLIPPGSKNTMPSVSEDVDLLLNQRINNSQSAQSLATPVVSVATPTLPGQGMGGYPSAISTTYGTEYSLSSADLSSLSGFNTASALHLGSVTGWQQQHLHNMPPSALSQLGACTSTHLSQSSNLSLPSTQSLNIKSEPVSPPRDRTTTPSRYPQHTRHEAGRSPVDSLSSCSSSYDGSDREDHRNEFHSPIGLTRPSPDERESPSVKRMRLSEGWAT
UniProt P48163: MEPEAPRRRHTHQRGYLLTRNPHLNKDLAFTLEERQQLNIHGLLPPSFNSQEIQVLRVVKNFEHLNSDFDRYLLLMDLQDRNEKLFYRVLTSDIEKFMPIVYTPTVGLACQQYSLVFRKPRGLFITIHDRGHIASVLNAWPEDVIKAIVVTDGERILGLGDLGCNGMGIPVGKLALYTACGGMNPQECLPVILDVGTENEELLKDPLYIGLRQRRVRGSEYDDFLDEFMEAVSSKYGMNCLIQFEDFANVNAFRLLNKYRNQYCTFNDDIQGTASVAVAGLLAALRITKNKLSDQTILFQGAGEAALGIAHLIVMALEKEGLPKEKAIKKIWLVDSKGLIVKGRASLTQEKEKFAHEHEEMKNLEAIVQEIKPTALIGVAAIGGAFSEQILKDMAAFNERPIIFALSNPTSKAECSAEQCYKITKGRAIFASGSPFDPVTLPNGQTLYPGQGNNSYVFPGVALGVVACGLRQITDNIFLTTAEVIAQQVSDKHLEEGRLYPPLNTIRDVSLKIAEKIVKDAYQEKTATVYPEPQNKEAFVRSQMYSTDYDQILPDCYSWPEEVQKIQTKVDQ
UniProt Q9NRN9: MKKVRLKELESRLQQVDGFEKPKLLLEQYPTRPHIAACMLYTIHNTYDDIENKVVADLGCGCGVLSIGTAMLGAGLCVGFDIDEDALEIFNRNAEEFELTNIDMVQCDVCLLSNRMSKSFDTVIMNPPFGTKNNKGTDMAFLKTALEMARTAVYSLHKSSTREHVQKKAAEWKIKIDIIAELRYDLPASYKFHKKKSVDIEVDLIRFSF
UniProt Q16626: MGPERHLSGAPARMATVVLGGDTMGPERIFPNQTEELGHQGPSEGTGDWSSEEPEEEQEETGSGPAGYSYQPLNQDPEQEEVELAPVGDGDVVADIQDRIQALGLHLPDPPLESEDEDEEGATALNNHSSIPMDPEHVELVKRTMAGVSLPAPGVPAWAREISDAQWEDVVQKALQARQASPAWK
UniProt Q9NWR8: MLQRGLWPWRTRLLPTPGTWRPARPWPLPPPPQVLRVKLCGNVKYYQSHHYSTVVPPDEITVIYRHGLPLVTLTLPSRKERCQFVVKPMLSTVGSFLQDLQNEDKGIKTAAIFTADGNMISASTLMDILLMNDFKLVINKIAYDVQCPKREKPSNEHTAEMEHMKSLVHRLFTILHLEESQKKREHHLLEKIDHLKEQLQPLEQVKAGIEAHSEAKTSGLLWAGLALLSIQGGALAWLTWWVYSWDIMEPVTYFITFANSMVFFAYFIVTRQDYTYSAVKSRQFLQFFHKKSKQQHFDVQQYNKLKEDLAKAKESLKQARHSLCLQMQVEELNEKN
UniProt P40925: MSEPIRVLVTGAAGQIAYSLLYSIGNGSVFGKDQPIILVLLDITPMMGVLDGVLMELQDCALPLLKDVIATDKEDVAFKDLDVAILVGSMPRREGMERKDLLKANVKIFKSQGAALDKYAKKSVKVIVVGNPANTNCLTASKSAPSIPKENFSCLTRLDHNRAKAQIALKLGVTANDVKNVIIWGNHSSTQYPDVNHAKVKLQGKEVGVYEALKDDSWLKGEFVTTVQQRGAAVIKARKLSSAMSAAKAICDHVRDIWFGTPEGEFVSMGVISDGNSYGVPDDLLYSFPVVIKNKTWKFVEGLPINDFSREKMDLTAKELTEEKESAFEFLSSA
UniProt P43243: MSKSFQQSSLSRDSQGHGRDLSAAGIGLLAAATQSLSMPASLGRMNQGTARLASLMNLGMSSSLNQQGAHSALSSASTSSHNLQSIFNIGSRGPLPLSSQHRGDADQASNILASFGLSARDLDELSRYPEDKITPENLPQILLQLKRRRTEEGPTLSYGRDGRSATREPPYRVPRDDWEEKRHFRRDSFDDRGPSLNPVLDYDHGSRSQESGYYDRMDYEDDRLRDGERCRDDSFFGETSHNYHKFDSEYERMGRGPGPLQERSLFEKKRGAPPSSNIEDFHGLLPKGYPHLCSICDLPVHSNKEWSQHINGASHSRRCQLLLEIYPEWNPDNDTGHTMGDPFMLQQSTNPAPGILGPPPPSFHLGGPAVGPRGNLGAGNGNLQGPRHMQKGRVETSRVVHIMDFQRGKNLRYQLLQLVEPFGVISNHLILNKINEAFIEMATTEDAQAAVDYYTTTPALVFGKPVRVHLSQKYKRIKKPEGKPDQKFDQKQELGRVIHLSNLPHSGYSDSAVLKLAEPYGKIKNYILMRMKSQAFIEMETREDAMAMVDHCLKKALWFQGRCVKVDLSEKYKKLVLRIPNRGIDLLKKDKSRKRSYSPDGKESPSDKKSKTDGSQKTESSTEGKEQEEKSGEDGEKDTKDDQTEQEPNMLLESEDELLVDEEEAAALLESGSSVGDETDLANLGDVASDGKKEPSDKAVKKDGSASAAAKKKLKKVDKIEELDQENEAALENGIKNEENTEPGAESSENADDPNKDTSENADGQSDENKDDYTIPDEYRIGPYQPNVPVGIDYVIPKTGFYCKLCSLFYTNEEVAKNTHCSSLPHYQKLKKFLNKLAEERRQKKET
UniProt Q8WXB1: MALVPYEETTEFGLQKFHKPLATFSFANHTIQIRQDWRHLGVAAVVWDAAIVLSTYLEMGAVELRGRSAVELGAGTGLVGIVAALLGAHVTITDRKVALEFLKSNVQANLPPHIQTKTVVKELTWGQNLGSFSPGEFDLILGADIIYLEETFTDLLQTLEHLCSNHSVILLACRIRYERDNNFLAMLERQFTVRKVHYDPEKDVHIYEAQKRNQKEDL
UniProt Q9ULC4: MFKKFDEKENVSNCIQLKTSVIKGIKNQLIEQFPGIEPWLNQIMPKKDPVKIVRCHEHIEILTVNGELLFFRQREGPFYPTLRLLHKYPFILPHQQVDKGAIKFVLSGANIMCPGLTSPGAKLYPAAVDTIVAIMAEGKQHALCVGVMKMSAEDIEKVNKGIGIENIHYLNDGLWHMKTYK
UniProt Q96PE7: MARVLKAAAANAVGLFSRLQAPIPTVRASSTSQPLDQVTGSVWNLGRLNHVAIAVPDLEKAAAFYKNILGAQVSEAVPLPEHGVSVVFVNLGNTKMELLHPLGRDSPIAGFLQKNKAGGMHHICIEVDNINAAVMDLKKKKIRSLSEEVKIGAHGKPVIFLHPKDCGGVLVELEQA

What follows are targets tested with c1cn2cc(-c3ccc4cn[nH]c4c3)nc(Nc3ccc(N4CCOCC4)cc3)c2n1 [entospletinib] (assay: log2 fold change, soluble protein after heating vs DMSO (PISA); higher = thermal stabilisation; K562 cells, 10 uM, 30 min; active = over 0.2 and 3.5 SD of the protein, either way, in both replicates (recomputed)).
Summary of the method: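 Thermal stability values are relative to control samples and come from duplicates. They are expressed as log2 fold changes. For measurement, K562 cells (2×10^6 cells/mL) received 10 μM compound for 30 min, and aliquots were heated for 3 min over 48°C-58°C, pooled, and extracted at 4°C in PBS with 0.5% NP-40. Soluble protein, the supernatant after 21,000xg for 90 min, was quantified by TMTpro 16plex LC-MS/MS with equalised channel sums.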

log2 fold change, inactive:
MDP1 (UniProt Q86V88) 0.016
METAP2 (UniProt P50579) 0.009
MGME1 (UniProt Q9BQP7) -0.018
MCOLN1 (UniProt Q9GZU1) -0.072
MBOAT7 (UniProt Q96N66) -0.025
MED31 (UniProt Q9Y3C7) -0.007
MED14 (UniProt O60244) 0.123
MERTK (UniProt Q12866) -0.089
MBNL1 isoform 5 (UniProt Q9NR56) 0
MED23 (UniProt Q9ULK4) -0.031
MEF2C isoform 5 (UniProt Q06413) 0.007
MARS2 (UniProt Q96GW9) -0.007
MCM3 isoform 2 (UniProt P25205) -0.023
MBOAT2 (UniProt Q6ZWT7) -0.058
MECR (UniProt Q9BV79) -0.008
METTL1 (UniProt Q9UBP6) 0.014
ME1 (UniProt P48163) -0.041
METTL7A (UniProt Q9H8H3) -0.017
MAT2A (UniProt P31153) 0.008
METTL5 (UniProt Q9NRN9) 0.003
MEMO1 (UniProt Q9Y316) 0.026
MEA1 (UniProt Q16626) -0.095
MCUB (UniProt Q9NWR8) -0.008
MDH1 isoform 3 (UniProt P40925) -0.053
MATR3 (UniProt P43243) 0.046
METTL21A (UniProt Q8WXB1) -0.054
MED13 (UniProt Q9UHV7) -0.176
MCTS1 isoform 3 (UniProt Q9ULC4) -0.008
MCEE (UniProt Q96PE7) 0.031

No new results follow: entries from further up.
log2 fold change, inactive:
MEMO1 (UniProt Q9Y316) 0.026
MEA1 (UniProt Q16626) -0.095
